Measurements: PMC9409353
Results are given in words; binding and its absence hold for the method and conditions named. Binding calls can cover weak binding; strength is not graded here.

Protein sequences, listed by entry. Tags and fused reporters are not part of them. Lines headed by an entry give the natural chain unless they say otherwise; changes in a name come on top.
UniProt G3XKQ9: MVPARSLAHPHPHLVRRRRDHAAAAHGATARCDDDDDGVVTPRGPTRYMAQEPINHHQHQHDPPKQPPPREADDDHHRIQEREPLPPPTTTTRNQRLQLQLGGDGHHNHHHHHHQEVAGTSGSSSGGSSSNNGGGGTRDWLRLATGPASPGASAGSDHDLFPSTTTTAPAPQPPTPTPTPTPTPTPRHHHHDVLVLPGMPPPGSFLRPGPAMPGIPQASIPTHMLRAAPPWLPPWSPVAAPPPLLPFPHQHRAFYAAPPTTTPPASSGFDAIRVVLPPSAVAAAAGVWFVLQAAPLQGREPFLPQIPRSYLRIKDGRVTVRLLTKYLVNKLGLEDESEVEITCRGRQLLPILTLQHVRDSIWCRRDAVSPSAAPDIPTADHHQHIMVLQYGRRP
UniProt Q8H3Q1: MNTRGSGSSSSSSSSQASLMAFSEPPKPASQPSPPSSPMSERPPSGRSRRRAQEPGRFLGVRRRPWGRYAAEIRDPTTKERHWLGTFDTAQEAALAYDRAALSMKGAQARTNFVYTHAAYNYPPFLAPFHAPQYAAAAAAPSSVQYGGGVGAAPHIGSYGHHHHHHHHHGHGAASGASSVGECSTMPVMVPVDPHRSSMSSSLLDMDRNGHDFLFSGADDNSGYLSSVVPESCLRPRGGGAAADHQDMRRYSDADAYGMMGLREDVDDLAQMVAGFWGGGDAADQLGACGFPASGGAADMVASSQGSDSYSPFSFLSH

Biological target: GST-LAX2 (rice (Oryza sativa L.)) (UniProt G3XKQ9)
Test: pull-down; purified recombinant proteins incubated 2 h at 4 °C in 50 mM Tris-HCl pH 7.5, 5% glycerol, 1 mM EDTA, 1 mM DTT, 1 mM PMSF, 0.01% Nonidet P-40, 150 mM KCl; MBP-PAA7 pulled down by GST-LAX2 (legend; methods say His-beads), immunoblot with anti-MBP; both purified

For MBP-PAA7 (from UniProt Q8H3Q1 1-318), the binding was “binds”.
